# Measured values from PubChem BioAssay AID2417 (National Center for Advancing Translational Sciences (NCATS), 2010).
# Hit rate of the full screen: of about 140,000 compounds, about 4,300 (3.1%) were called active. The inconclusive results got no clear call from the source; some entries with a clear call stand among them for comparison.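 Rule for the calls: active = readout at or below -70, meaning at least 70% loss of cells showing the perinucleolar compartment, a nuclear body marking cancer cells; inconclusive = readout between -30 and a set limit; inactive = the rest.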
# Experiment: High Content Assay for Compounds that inhibit the Assembly of the Perinucleolar Compartment;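 note: plate controls were DMSO wells for no effect and camptothecin positive control wells for full effect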
# Details: PC3M PTB-GFP, PNC prevalence imaging, 16 h; at 10 µM; active compounds read low
# How it was run: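 PC3M cells stably expressing PTB-GFP, 750–1000 cells/well, treated 16 h at 37 °C with compound (23 nl of library stock), in duplicate. After paraformaldehyde fixation and Hoechst stain, imaged at 20x; PNC prevalence scored by image analysis.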
row,Compound,"activity change (PNC), negative = inhibition"
1,COc1ccccc1/C=c1\sc2nc(-c3ccccc3OC)nn2c1=O,inactive: 2.36%
2,CC(=O)N1CCN(C2=Nc3cccc4cccc2c34)CC1,inactive: -2.39%
3,COc1ccc2c(c1)OC1=C(C(=O)CCC1)C2C1=C(O)CCCC1=O (stereo not drawn),inconclusive: -37%
4,On1c2c(c3c4nonc4ccc31)CCCC2,inconclusive: -49.2%
5,Cc1onc(-c2ccccc2Cl)c1C(=O)Nc1nnc(Cc2ccc(Cl)cc2)s1,inconclusive: -50.3%
6,O=C(c1ccc(S(=O)(=O)Nc2ccccc2)cc1)N1CCOCC1,inactive: 51.1%
7,CCNc1nc(NCC)n2c(SC(C(=O)Nc3cc(C)ccc3C)c3ccccc3)nnc2n1 (stereo not drawn),inconclusive: -39%
8,Cc1cccc(NC(=O)c2ccc(C3SCC(=O)N3CCc3ccccc3)cc2)c1 (stereo not drawn),inactive: 31.7%
9,Cc1cc(NC(=O)CSc2n[nH]c(-c3cccs3)n2)no1,inconclusive: -53%
10,c1c2c(cc3sc(N4CCOCC4)nc13)OCO2,inactive: -6.34%
11,C/C=C/c1ccc(OCCCCOc2ccccc2C(C)=O)c(OC)c1,inactive: 28.9%
12,Cc1ccc(NC(=O)CC2S/C(=N/N=C3\CCCc4ccccc43)NC2=O)cc1 (stereo not drawn),inconclusive: -46.7%
13,CCN(Cc1ccccc1)S(=O)(=O)c1ccc(C(=O)Nc2nnc(-c3ccccc3OC)o2)cc1,inconclusive: -44%
14,COn1c(=O)c(-c2ccc(Cl)cc2)[n+]([O-])c2ccccc21,inconclusive: -60.3%
15,COC(=O)c1c(C)[nH]c(C(=O)CSc2nnnn2-c2ccccc2)c1C,inactive: -7.47%
16,O=C(N/N=C/c1ccc(O)cc1)c1nc(-c2ccccc2)n(-c2ccccc2)n1,active: -100%
17,COc1cccc(NC(=O)C23CCC(C)(C(=O)O2)C3(C)C)c1 (stereo not drawn),inactive: 31.7%
18,CCC(C)c1ccc(NC(=O)C2CCN(c3ncccn3)CC2)cc1 (stereo not drawn),inconclusive: -46.1%
19,CC(=O)Nc1ccc(-c2ccccc2)s1,inactive: 70.1%
20,CCS(=O)(=O)Nc1cccc(C2=NN(S(=O)(=O)c3ccccc3)C(c3cccs3)C2)c1 (stereo not drawn),inactive: 23.4%
21,Cc1onc(-c2ccccc2Cl)c1C(=O)Nc1nnc(-c2cccc([N+](=O)[O-])c2)s1,active: -108%
22,CCOC(=O)c1cc(C)sc1/N=C/C1C(=O)CC(C)(C)CC1=O,inconclusive: -57.3%

row,Compound,"activity change (PNC), negative = inhibition"
1,O=c1cc(CN2CCc3ccccc32)nc2sccn12,inconclusive: -59%
2,O=C(NC1CCN(C(=O)N2c3ccccc3Sc3ccccc32)CC1)c1ccco1,inactive: 30.6%
3,Cn1nnnc1SCC(=O)NCC(=O)c1ccccc1,inconclusive: -61.6%
4,CC1CCc2c(sc3nc(CN4CCN(S(=O)(=O)c5ccccc5[N+](=O)[O-])CC4)[nH]c(=O)c23)C1 (stereo not drawn),inactive: -25.2%
5,O=C(OC1CCS(=O)(=O)c2sccc21)c1ccccc1 (stereo not drawn),inconclusive: -54.7%
6,Cc1cc(C)nc(NC(=NCCc2c[nH]c3ccccc23)NC(=O)Nc2ccc(Cl)cc2)n1,inactive: -25.2%
7,Cc1onc(-c2ccccc2Cl)c1C(=O)Nc1cccnc1,inconclusive: -62.7%
8,CC(C)C(c1nnnn1Cc1ccc2c(c1)OCO2)N1CCN(c2ccccc2)CC1 (stereo not drawn),inactive: 9%
9,Cc1cc(C)cc(-n2c(C)cc(/C=N\NC(=O)COc3cccc4cccnc34)c2C)c1,inconclusive: -45.3%
10,O=C(C1CCN(Cc2ccccc2)CC1)N1CCCC1,inactive: 0.0275%
11,COc1cccc(/C(O)=C2\C(=O)C(=O)N(c3ccccn3)C2c2ccccc2OC)c1 (stereo not drawn),inconclusive: -32.2%
12,Nc1c(C(=O)Nc2cccc(Cl)c2Cl)sc2nc(-c3cccnc3)ccc12,inconclusive: -32.7%
13,COc1cc(-c2nnc(SCc3cc(=O)oc4cc(O)c(O)cc34)o2)cc(OC)c1OC,inactive: -7.44%
14,O=C1CCCc2c1nc(-c1ccco1)n2O,inconclusive: -50.2%
15,CCOc1ccc(/C=C/[N+](=O)[O-])c2ccccc12,inactive: 16.4%
16,O=C(N/N=C/c1ccc(O)cc1)/C(=C/c1ccccc1)CCO,inconclusive: -45.7%
17,Cc1cccc2cc(CN(Cc3ccco3)C(=O)Nc3cccc(C#N)c3)c(Cl)nc12,inconclusive: -33.5%
18,CC(C)CNC(=O)NC(=O)COC(=O)c1cc(F)cc(F)c1,inconclusive: -41.9%
19,CC(C)CNC(=O)c1ccccc1NC(=O)c1ccccc1N(C)S(=O)(=O)c1ccccc1,inactive: 26.4%
20,CCOc1ccc(C(=O)Nc2cnn(Cc3ccc(Cl)c(Cl)c3)c2)cc1,inconclusive: -34.2%
21,COc1ccc(CNC(=O)C(OC(=O)c2ccco2)c2ccc(OC)cc2)cc1 (stereo not drawn),inactive: 45.1%
22,CCN(CC)CCNC(=O)CS(=O)Cc1nc(-c2ccccc2Cl)oc1C (stereo not drawn),inconclusive: -58.5%

row,Compound,"activity change (PNC), negative = inhibition"
1,COc1ccc(NC(=O)CCS(=O)(=O)c2ccc3c(c2)CCCN3C(C)=O)cc1Cl,inconclusive: -57.9%
2,COc1ccc(S(=O)(=O)N2CCCC(C(=O)N3CCN(C)CC3)C2)cc1C (stereo not drawn),inconclusive: -55.9%
3,O=C(Nc1ccc(F)cc1)Nc1cc(OCC(F)(F)F)cc(OCC(F)(F)F)c1,inactive: 17.1%
4,O=c1c2cccnc2[nH]c(=S)n1CCC1=CCCCC1,inconclusive: -64.7%
5,COc1ccc(S(=O)(=O)N(C)CC(=O)N2CCN(Cc3ccccc3)CC2)cc1C,inconclusive: -57.1%
6,Cc1c(N=Cc2ccc(Cl)o2)c(=O)n(-c2ccccc2)n1C,inconclusive: -39.3%
7,O=c1cc(-c2ccncc2)oc2ccccc12,inactive: 17.3%
8,Cc1onc(-c2ccccc2Cl)c1C(=O)OCC(=O)c1ccccc1,inconclusive: -38.7%
9,Cc1cc(C)c2cc(CN(Cc3nnnn3C3CCCCC3)CC3CCCO3)c(=O)[nH]c2c1 (stereo not drawn),inactive: 35.8%
10,CC1(C)NC(=O)N(CCOc2cccc(Cl)c2Cl)C1=O,inconclusive: -32.2%
11,COc1ccc(Cl)cc1NC(=O)C1CSC(c2ccncc2)=N1 (stereo not drawn),inactive: 66.8%
12,O=[N+]([O-])c1cccc(C=Nc2cc3c(cc2Br)OCCO3)c1,inconclusive: -58.7%
13,O=C(NCc1nc2ncc(Br)cc2[nH]1)c1ccccc1,inconclusive: -47.8%
14,CC(C)Nc1nnc(SCC(=O)Nc2ccc(F)cc2)s1,inconclusive: -58.8%
15,CCOC(=O)c1cnc(SCc2nc(N)nc(Nc3ccc(F)cc3)n2)nc1N,inconclusive: -37.3%
16,CCOc1cc(C2C3=C(CCCC3=O)NC3=C2C(=O)CCC3)cc(Cl)c1O,inactive: 14.3%
17,COc1ccccc1CC(=O)Nc1ccc2c(c1)CCC2,inconclusive: -34.5%
18,CCOC(=O)c1sc2nc(CC(=O)OC)nc(NCCN3CCOCC3)c2c1C,inconclusive: -32.4%
19,O=C(Nc1ccon1)c1cccc(C(F)(F)F)c1,inconclusive: -73.9%
20,CCN(CC)Cc1ccccc1Sc1ccccc1,inconclusive: -58.2%
21,COC(=O)c1sc2nc(CN3CCN(c4cccc(C(F)(F)F)c4)CC3)[nH]c(=O)c2c1C,inconclusive: -33.2%
22,Cc1ccc(C2Nc3ccc4ccccc4c3C3=C2C(=O)CC(C)(C)C3)o1 (stereo not drawn),inconclusive: -49.3%

# Of the compounds above, these contain fluorine:
row,Compound,"activity change (PNC), negative = inhibition"
18,CC(C)CNC(=O)NC(=O)COC(=O)c1cc(F)cc(F)c1,inconclusive: -41.9%
3,O=C(Nc1ccc(F)cc1)Nc1cc(OCC(F)(F)F)cc(OCC(F)(F)F)c1,inactive: 17.1%
14,CC(C)Nc1nnc(SCC(=O)Nc2ccc(F)cc2)s1,inconclusive: -58.8%
15,CCOC(=O)c1cnc(SCc2nc(N)nc(Nc3ccc(F)cc3)n2)nc1N,inconclusive: -37.3%
19,O=C(Nc1ccon1)c1cccc(C(F)(F)F)c1,inconclusive: -73.9%
21,COC(=O)c1sc2nc(CN3CCN(c4cccc(C(F)(F)F)c4)CC3)[nH]c(=O)c2c1C,inconclusive: -33.2%

# More compounds:

row,Compound,"activity change (PNC), negative = inhibition"
1,COc1ccccc1C(=O)N/C(N)=N/c1nc2ccccc2o1,inconclusive: -60.6%
2,CCOC(=O)c1c(C2COc3ccccc3O2)csc1NC(=O)c1ccco1 (stereo not drawn),inactive: 26.4%
3,O=S(=O)(/N=C(\c1ccccc1F)N1CCCCC1)c1ccccc1,inconclusive: -32.3%
4,CCN=C(NCC)SC1CC(=O)N(c2cccc(OCC)c2)C1=O (stereo not drawn),inactive: 51%
5,Cc1ccc(CNC(=O)C2CC(c3ccc([N+](=O)[O-])cc3)=NO2)cc1 (stereo not drawn),inconclusive: -33.4%
6,Cc1nn(-c2ccccc2)c(C)c1/C=N/NC(=O)c1cc(C(C)(C)C)[nH]n1,active: -82.6%
7,C=CCOc1ccc(C=Nc2ccc(Cl)cc2)c(O)c1,inactive: 37.4%
8,CCCCc1c(O)nc(SCC(=O)NC(C)(C)C)n(-c2ccccc2C)c1=O,inconclusive: -42.3%
9,Nc1nnc(CCS(=O)(=O)c2cc(Cl)ccc2Cl)s1,inconclusive: -53.9%
10,COC(=O)CSc1nc2c(c(=O)[nH]c(=O)n2C)n1CCC(C)C,inconclusive: -69.1%
11,COc1ccc(C(NC(=O)/C=C/c2ccco2)c2ccc(OC)c(OC)c2)cc1OC,inconclusive: -31.7%
12,CCOc1ccc(OCC)c(NC(=O)CN2CCN(c3cccc(C)c3C)CC2)c1,inconclusive: -47.8%
13,CC(=O)Cc1nsc(NC(=O)c2csc3c2CCCC3)n1,inconclusive: -53%
14,CCn1c2ccccc2c2nnc(SCC(=O)Nc3ccc4c(c3)OCO4)nc21,inconclusive: -69.8%
15,O=C(Cn1c2ccccc2c(=O)c2ccccc21)N/N=C/c1cc([N+](=O)[O-])ccc1N1CCCCCC1,inconclusive: -37%
16,CC1(C)COC(c2coc3ccccc3c2=O)OC1,inactive: 10%
17,COc1ccc(C(=O)c2c[nH]cc2-c2ccccc2)cc1,inconclusive: -63.5%
18,CC(C)CCNC(=O)CN(Cc1ccc2c(c1)OCO2)C(=O)Cn1nnc(-c2cccs2)n1,inconclusive: -34.4%
19,O=C(N=Nc1c(O)[nH]c2ccc(Br)cc12)c1ccccc1-n1cccc1,inconclusive: -61.4%
20,CCc1cc2ccc(C)cc2nc1SCC(=O)NNC(=O)c1ccco1,inconclusive: -46.8%
21,COC(=O)c1cc(COc2ccc3c(c2)oc(=O)c2ccccc23)c(C)o1,inactive: -16.6%
22,COc1ccc2c(c1)c(C(=O)N/N=C/c1cccc(O)c1)c(C)n2C,inconclusive: -34.4%
